Laboratory results: PubChem BioAssay AID1259308 (NCATS, 2017)
In all, the deposit lists about 59,000 reagents; below is an unselected part. In the full data, about 1,510 (2.6%) got an active call. 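Calls use total luciferase alone and ignore viability, so some active siRNAs may act by altering cell number.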 Reagents against one gene are numbered here.

Aim: 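Candidate targets for better recombinant protein yield in mammalian cells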 (primary screen)
Cells: human HEK293 embryonic kidney cells stably expressing firefly luciferase (HEK-CMV-Luc2-Hygro)
Reagents: single siRNA against human genes, 0.8 pmol siRNA per well
Time to read-out: 72 h
Detection: 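Luciferase light (ONE-Glo) measured on one replicate plate set and viability (CellTiter-Glo) on the other, scaled to a negative control siRNA, with robust z-scores and luciferase per cell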
Direction: total luciferase, z-score and total luciferase, % of control: higher = more reporter protein produced; luciferase per cell, z-score: higher = more reporter output per viable cell; viable cells, % of control: higher = more viable cells
Call rule: 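An siRNA counts as active if its total luciferase robust z-score exceeds 3; genes with two or more such siRNAs out of three were retested with fresh siRNAs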
Calls: active = raised luciferase; inactive = no rise

gene | siRNA no. | total luciferase, z-score | total luciferase, % of control | luciferase per cell, z-score | viable cells, % of control | Outcome
POMP | 1 | 0.571 | 93.2 | 1.93 | 62.6 | inactive
POMP | 2 | -0.149 | 78.9 | 0.741 | 72.6 | inactive
POMP | 3 | 0.821 | 98.2 | 1.98 | 65.2 | inactive
LINC02877 | 1 | 2.77 | 137 | 1.87 | 93.5 | inactive
LINC02877 | 2 | -0.108 | 79.7 | -0.33 | 97.2 | inactive
LINC02877 | 3 | 1.1 | 104 | 0.145 | 112 | inactive
SLC18B1 | 1 | -0.287 | 76.2 | -0.43 | 95.3 | inactive
SLC18B1 | 2 | 1.7 | 116 | 1.64 | 83.9 | inactive
SLC18B1 | 3 | 1.43 | 110 | 1.13 | 91.6 | inactive
SHC1 | 1 | -1.27 | 56.7 | -2.05 | 109 | inactive
SHC1 | 2 | -0.339 | 75.1 | 1.28 | 59.9 | inactive
SHC1 | 3 | 0.733 | 96.5 | 0.151 | 104 | inactive
GARRE1 | 1 | 1.71 | 116 | 1.14 | 95.8 | inactive
GARRE1 | 2 | -0.0729 | 80.4 | -0.553 | 104 | inactive
GARRE1 | 3 | 0.189 | 85.7 | -0.8 | 118 | inactive
ZIK1 | 1 | 1.41 | 110 | 1.43 | 84.1 | inactive
ZIK1 | 2 | -0.471 | 72.5 | -1.11 | 109 | inactive
ZIK1 | 3 | 0.472 | 91.3 | 0.726 | 84.2 | inactive
PORCN | 1 | 0.793 | 97.7 | 0.898 | 86.2 | inactive
PORCN | 2 | -0.349 | 74.9 | -0.705 | 101 | inactive
PORCN | 3 | 0.755 | 96.9 | 0.45 | 96.2 | inactive
SLC5A7 | 1 | -0.945 | 63.1 | -0.925 | 90 | inactive
SLC5A7 | 2 | 0.175 | 85.4 | -0.0511 | 96.7 | inactive
SLC5A7 | 3 | -0.766 | 66.6 | -0.484 | 84.6 | inactive
OR8D2 | 1 | 0.815 | 98.1 | 0.67 | 91.9 | inactive
OR8D2 | 2 | -0.432 | 73.3 | -0.0303 | 82.6 | inactive
OR8D2 | 3 | -1.45 | 53 | -1.17 | 80.8 | inactive
SYN2 | 1 | -0.422 | 73.5 | -0.857 | 103 | inactive
SYN2 | 2 | 0.676 | 95.3 | 0.00689 | 106 | inactive
SYN2 | 3 | -1.49 | 52.2 | -1.45 | 85.3 | inactive
IFNA10 | 1 | 1.19 | 106 | 1.01 | 90.5 | inactive
IFNA10 | 2 | 1.01 | 102 | 0.579 | 97.8 | inactive
IFNA10 | 3 | 1.39 | 110 | 1.83 | 75.5 | inactive

Individual results from the entries so far.
For “total luciferase, % of control”, GARRE1 #3 is entered as 85.7
Result of PORCN #1 under “luciferase per cell, z-score”: 0.898
Value of POMP #1 under “viable cells, % of control”: 62.6
Under “Outcome”, IFNA10 #1 has inactive
Under “total luciferase, z-score”, SHC1 #1 reads -1.27

More records follow.
gene | siRNA no. | total luciferase, z-score | total luciferase, % of control | luciferase per cell, z-score | viable cells, % of control | Outcome
LARS2 | 1 | -0.145 | 79 | -0.265 | 94.7 | inactive
LARS2 | 2 | 0.285 | 87.6 | 0.0574 | 96.4 | inactive
LARS2 | 3 | -0.228 | 77.4 | -0.127 | 89.4 | inactive
LOC731075 | 1 | 2.41 | 130 | 2.69 | 71.4 | inactive
LOC731075 | 2 | -0.0381 | 81.1 | 0.522 | 79 | inactive
LOC731075 | 3 | 0.53 | 92.4 | 0.42 | 92.5 | inactive
TJP2 | 1 | -0.098 | 79.9 | -0.0415 | 90.3 | inactive
TJP2 | 2 | 0.301 | 87.9 | 0.395 | 88.5 | inactive
TJP2 | 3 | 0.0875 | 83.6 | -0.0916 | 95.7 | inactive
CIB3 | 1 | 0.0977 | 83.8 | 0.2 | 88.9 | inactive
CIB3 | 2 | -1.17 | 58.6 | -1.37 | 93.8 | inactive
CIB3 | 3 | 2.81 | 138 | 2.23 | 85.5 | inactive
MBL2 | 1 | 1.52 | 112 | 1.35 | 87.9 | inactive
MBL2 | 2 | -0.113 | 79.6 | 1.1 | 66.6 | inactive
MBL2 | 3 | -1.85 | 45 | -2.03 | 85.9 | inactive
OR51F1 | 1 | 3.16 | 145 | 2.96 | 74.3 | active
OR51F1 | 2 | 0.509 | 92 | -0.591 | 120 | inactive
OR51F1 | 3 | -0.14 | 79.1 | -0.147 | 91.9 | inactive
ARSB | 1 | -0.216 | 77.6 | -0.524 | 99.5 | inactive
ARSB | 2 | 0.233 | 86.5 | 0.175 | 92.3 | inactive
ARSB | 3 | 1.1 | 104 | 0.365 | 105 | inactive
ZNF101P2 | 1 | -0.368 | 74.6 | 1.58 | 54.9 | inactive
ZNF101P2 | 2 | 1.08 | 103 | 0.624 | 98 | inactive
ZNF101P2 | 3 | -0.301 | 75.9 | 0.435 | 75.6 | inactive
